Test results taken from PMC8887482.
Results are given in words; binding and its absence hold for the method and conditions named. In cells and extracts the contact can be indirect. Some binding calls cover weakened binding; strength is not graded here. For some assays here: Sequences can lack the tags named with a protein. One block for each molecule: values may come before it.

Protein sequences, listed by entry. Tags and fused reporters are not part of them.
UniProt O55170: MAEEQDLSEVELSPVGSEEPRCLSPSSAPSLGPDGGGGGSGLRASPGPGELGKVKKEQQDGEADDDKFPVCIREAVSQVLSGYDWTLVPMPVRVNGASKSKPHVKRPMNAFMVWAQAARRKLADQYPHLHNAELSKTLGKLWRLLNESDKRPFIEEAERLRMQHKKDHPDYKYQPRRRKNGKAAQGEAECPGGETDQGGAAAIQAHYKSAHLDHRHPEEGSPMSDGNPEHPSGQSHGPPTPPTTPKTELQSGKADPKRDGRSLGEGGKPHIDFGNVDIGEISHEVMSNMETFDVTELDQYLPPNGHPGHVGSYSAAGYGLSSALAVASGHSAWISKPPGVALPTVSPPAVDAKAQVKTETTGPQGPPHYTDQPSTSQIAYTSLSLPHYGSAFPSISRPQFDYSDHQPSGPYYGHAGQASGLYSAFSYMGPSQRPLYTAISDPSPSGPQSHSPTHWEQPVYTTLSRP

Experiments:
[1] = target: T1, Zfp276 (full-length murine Zfp276, pCMV5 expression plasmid) (mouse) (UniProt Q8CE64); assay: co-IP; extracts from HEK293T cells transfected with Sox10 and Zfp276 expression vectors; precipitation with rabbit anti-Zfp276 or rabbit anti-Sox10 antiserum and Protein A-Sepharose; western blot
T1 sequence: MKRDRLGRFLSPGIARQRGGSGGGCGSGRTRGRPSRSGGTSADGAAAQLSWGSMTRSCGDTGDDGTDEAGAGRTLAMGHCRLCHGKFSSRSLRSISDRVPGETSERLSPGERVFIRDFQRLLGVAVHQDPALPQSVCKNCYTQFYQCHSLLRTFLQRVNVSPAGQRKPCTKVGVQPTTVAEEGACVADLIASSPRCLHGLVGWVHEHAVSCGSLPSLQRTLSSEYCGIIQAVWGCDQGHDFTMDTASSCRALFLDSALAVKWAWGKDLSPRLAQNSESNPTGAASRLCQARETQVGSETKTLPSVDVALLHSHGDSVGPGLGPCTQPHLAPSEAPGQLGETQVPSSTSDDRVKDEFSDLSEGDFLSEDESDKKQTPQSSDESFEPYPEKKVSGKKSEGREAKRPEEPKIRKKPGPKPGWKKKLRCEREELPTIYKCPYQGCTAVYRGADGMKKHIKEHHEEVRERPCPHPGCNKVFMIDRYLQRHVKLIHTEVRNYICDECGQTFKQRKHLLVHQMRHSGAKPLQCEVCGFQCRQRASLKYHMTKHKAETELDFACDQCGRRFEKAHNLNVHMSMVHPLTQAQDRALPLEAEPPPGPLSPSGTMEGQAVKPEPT

[2] = target: Sox10 (pCMV5 expression vector) (UniProt O55170); assay: as above
[3] = target: T2, myc-Zeb2 (Zeb2/Sip1 with N-terminal 6xmyc tag, pCMV5), in HEK293T (UniProt Q9R0G7); assay: co-IP; HEK293T lysates overexpressing myc-Zeb2, Zfp276 or a combination; with or without DNaseI; precipitation with anti-myc antibody, Zfp276 detected with anti-Zfp276 antiserum
T2 sequence: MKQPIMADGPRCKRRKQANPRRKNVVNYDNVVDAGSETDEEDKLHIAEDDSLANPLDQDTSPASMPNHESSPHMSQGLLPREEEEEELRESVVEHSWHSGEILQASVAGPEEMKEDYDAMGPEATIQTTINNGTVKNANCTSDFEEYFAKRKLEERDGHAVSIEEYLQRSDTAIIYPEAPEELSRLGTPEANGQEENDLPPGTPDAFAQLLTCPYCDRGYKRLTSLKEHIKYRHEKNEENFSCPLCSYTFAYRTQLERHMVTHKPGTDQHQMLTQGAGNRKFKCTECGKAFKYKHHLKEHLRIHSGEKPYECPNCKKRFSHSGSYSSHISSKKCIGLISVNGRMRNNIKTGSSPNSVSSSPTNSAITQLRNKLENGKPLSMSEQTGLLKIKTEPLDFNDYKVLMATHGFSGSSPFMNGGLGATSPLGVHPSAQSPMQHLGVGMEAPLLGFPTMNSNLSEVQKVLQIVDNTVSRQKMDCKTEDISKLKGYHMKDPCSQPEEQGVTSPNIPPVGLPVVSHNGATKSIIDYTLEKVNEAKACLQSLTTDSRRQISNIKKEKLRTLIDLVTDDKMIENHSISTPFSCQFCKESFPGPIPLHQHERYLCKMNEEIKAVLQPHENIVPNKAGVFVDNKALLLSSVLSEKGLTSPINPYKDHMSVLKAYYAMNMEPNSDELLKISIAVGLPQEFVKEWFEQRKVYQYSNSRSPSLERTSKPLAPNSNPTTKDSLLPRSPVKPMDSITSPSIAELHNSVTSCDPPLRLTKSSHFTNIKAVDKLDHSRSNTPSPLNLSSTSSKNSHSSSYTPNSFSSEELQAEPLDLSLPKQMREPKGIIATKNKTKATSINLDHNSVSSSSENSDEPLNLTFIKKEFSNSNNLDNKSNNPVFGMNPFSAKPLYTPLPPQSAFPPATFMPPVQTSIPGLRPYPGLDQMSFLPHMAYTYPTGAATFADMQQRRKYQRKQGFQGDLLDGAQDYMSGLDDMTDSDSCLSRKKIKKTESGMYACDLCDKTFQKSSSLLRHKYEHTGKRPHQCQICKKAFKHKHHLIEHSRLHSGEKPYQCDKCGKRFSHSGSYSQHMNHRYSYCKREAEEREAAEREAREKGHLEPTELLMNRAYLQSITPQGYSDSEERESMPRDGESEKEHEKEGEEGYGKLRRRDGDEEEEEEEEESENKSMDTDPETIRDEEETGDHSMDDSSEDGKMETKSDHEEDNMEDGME

[4] = target: T3, myc-Zeb2 (pCMV5-myc-Zeb2), in CG4 cells (UniProt Q9R0G7); assay: proximity ligation; CG4 cells transfected with pCMV5-myc-Zeb2, 3 days under differentiating conditions, fixed with 2% paraformaldehyde; Duolink kit with mouse anti-myc antibody and anti-Zfp276 antiserum; single antibodies as controls
T3 sequence: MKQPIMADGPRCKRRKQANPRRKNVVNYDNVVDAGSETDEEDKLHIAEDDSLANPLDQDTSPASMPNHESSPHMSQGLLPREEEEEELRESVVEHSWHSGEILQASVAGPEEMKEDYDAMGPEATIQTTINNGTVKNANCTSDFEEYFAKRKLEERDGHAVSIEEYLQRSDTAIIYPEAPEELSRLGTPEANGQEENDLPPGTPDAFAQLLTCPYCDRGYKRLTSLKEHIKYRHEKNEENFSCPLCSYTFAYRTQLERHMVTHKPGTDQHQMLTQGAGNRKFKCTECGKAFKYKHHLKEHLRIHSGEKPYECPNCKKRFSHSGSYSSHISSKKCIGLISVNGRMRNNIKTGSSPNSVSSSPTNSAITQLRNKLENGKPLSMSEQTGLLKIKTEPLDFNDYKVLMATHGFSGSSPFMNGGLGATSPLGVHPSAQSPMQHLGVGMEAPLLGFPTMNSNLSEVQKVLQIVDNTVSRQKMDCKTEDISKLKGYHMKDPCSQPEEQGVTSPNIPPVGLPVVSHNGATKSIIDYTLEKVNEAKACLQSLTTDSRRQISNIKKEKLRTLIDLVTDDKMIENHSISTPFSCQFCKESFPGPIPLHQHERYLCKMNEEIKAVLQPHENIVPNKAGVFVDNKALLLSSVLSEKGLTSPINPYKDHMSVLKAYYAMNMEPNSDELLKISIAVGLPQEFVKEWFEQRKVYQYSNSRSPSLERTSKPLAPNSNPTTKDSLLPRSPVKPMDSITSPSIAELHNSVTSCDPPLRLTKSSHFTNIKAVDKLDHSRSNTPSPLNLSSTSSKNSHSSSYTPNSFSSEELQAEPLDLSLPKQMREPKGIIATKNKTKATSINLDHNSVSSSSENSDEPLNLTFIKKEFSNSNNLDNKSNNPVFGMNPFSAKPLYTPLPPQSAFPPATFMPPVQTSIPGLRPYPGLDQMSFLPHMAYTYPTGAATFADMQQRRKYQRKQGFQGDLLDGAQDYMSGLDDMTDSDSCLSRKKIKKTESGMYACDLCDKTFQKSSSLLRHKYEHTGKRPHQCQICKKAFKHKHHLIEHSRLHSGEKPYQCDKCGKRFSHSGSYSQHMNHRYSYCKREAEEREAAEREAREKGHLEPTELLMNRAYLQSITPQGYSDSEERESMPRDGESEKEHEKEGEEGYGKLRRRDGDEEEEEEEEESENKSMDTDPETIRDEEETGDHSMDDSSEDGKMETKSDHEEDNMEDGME

[5] = target: T4, EGFP-Cterm (EGFP fused to the C-terminal fragment of Zfp276, amino acids 409 to 614) (mouse) (UniProt Q8CE64); assay: co-IP; HEK293T lysate containing myc-Zeb2 co-incubated with lysates of EGFP-tagged Zfp276 or its fragments together with anti-GFP antibody; myc-Zeb2 detected with anti-myc antibody
T4 sequence: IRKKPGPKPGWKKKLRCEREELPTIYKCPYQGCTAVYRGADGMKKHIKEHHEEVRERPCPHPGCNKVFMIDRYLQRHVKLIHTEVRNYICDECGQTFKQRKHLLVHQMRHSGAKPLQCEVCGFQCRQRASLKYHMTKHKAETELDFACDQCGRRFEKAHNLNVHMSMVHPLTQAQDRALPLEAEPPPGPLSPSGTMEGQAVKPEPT

- binding [1]: no binding
Molecule: Sox10 (pCMV5 expression vector) (from UniProt O55170 1-466)

- binding [2]: no binding
- binding [3]: binds
B1: Zfp276 (full-length murine Zfp276, pCMV5 expression plasmid) (protein, UniProt Q8CE64-1 1-614)
chain: MKRDRLGRFLSPGIARQRGGSGGGCGSGRTRGRPSRSGGTSADGAAAQLSWGSMTRSCGDTGDDGTDEAGAGRTLAMGHCRLCHGKFSSRSLRSISDRVPGETSERLSPGERVFIRDFQRLLGVAVHQDPALPQSVCKNCYTQFYQCHSLLRTFLQRVNVSPAGQRKPCTKVGVQPTTVAEEGACVADLIASSPRCLHGLVGWVHEHAVSCGSLPSLQRTLSSEYCGIIQAVWGCDQGHDFTMDTASSCRALFLDSALAVKWAWGKDLSPRLAQNSESNPTGAASRLCQARETQVGSETKTLPSVDVALLHSHGDSVGPGLGPCTQPHLAPSEAPGQLGETQVPSSTSDDRVKDEFSDLSEGDFLSEDESDKKQTPQSSDESFEPYPEKKVSGKKSEGREAKRPEEPKIRKKPGPKPGWKKKLRCEREELPTIYKCPYQGCTAVYRGADGMKKHIKEHHEEVRERPCPHPGCNKVFMIDRYLQRHVKLIHTEVRNYICDECGQTFKQRKHLLVHQMRHSGAKPLQCEVCGFQCRQRASLKYHMTKHKAETELDFACDQCGRRFEKAHNLNVHMSMVHPLTQAQDRALPLEAEPPPGPLSPSGTMEGQAVKPEPT

- binding [4]: binds
B2: endogenous Zfp276 of differentiated CG4 cells (protein, UniProt F1LN08 1-609)
chain: MKRDRLGRFLSPGIARQRGSSGSSCGSGRTRGRPSRTGGSSADGAAPQLSWGSTRSCGDTGEDGTDEAGAGRTLTMGHCRLCHGKFSSRSLRSISERVPGETSERLSPGERVFIRDFQRLLGVAVHQDPALPQFVCKNCYTQFYQCHSLLRSFLQRVNVSPAGQRKPCTKVGVQPPTVAEEGACMADLITSSPQCLHGLVGWVHEHAVNCGCLPSLQRTLSSEYCGVIQAVWGCDQGHDFTMDTDSGCRALLLDSALAVKWGKELAPRLAQSSASDPTGAASQLCQARETQVGSETKTLPSVDVALLHSHGDSVGPGLSPYIQPNLAPSEAPGQLGEKQVPSSTSDDRVKDEFSDLSEGDVLSEDDSDKKQTPQSSDESFEPYPEKKVSGKKSEGKEAKRPEEPKIRKKPGPKPGWKKKLRCEREELPTIYKCPYQGCTAVYRGADGMKKHIKEHHEEVRERPCPHPGCNKVFMIDRYLQRHVKLIHTEVRNYICDECGQTFKQRKHLLVHQMRHSGAKPLQCEVCGFQCRQRASLKYHMTKHKAETELDFACDQCGRRFEKAHNLNVHMSMVHPLTQTQALPLEAEPPPGPLSLAGTVEGQAVKPEPT

- binding [5]: binds
B3: myc-Zeb2 (Zeb2/Sip1 with N-terminal 6xmyc tag, pCMV5), in HEK293T (protein, UniProt Q9R0G7 1-1215)
chain: MKQPIMADGPRCKRRKQANPRRKNVVNYDNVVDAGSETDEEDKLHIAEDDSLANPLDQDTSPASMPNHESSPHMSQGLLPREEEEEELRESVVEHSWHSGEILQASVAGPEEMKEDYDAMGPEATIQTTINNGTVKNANCTSDFEEYFAKRKLEERDGHAVSIEEYLQRSDTAIIYPEAPEELSRLGTPEANGQEENDLPPGTPDAFAQLLTCPYCDRGYKRLTSLKEHIKYRHEKNEENFSCPLCSYTFAYRTQLERHMVTHKPGTDQHQMLTQGAGNRKFKCTECGKAFKYKHHLKEHLRIHSGEKPYECPNCKKRFSHSGSYSSHISSKKCIGLISVNGRMRNNIKTGSSPNSVSSSPTNSAITQLRNKLENGKPLSMSEQTGLLKIKTEPLDFNDYKVLMATHGFSGSSPFMNGGLGATSPLGVHPSAQSPMQHLGVGMEAPLLGFPTMNSNLSEVQKVLQIVDNTVSRQKMDCKTEDISKLKGYHMKDPCSQPEEQGVTSPNIPPVGLPVVSHNGATKSIIDYTLEKVNEAKACLQSLTTDSRRQISNIKKEKLRTLIDLVTDDKMIENHSISTPFSCQFCKESFPGPIPLHQHERYLCKMNEEIKAVLQPHENIVPNKAGVFVDNKALLLSSVLSEKGLTSPINPYKDHMSVLKAYYAMNMEPNSDELLKISIAVGLPQEFVKEWFEQRKVYQYSNSRSPSLERTSKPLAPNSNPTTKDSLLPRSPVKPMDSITSPSIAELHNSVTSCDPPLRLTKSSHFTNIKAVDKLDHSRSNTPSPLNLSSTSSKNSHSSSYTPNSFSSEELQAEPLDLSLPKQMREPKGIIATKNKTKATSINLDHNSVSSSSENSDEPLNLTFIKKEFSNSNNLDNKSNNPVFGMNPFSAKPLYTPLPPQSAFPPATFMPPVQTSIPGLRPYPGLDQMSFLPHMAYTYPTGAATFADMQQRRKYQRKQGFQGDLLDGAQDYMSGLDDMTDSDSCLSRKKIKKTESGMYACDLCDKTFQKSSSLLRHKYEHTGKRPHQCQICKKAFKHKHHLIEHSRLHSGEKPYQCDKCGKRFSHSGSYSQHMNHRYSYCKREAEEREAAEREAREKGHLEPTELLMNRAYLQSITPQGYSDSEERESMPRDGESEKEHEKEGEEGYGKLRRRDGDEEEEEEEEESENKSMDTDPETIRDEEETGDHSMDDSSEDGKMETKSDHEEDNMEDGME
